# Results deposited as PubChem BioAssay AID504808 (Drosophila RNAi Screening Center, 2011)
# Purpose: 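Genes whose loss lifts activity of an E2F-responsive reporter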 (primary screen)
# System: Drosophila S2 cells
# Reagent: long dsRNA against Drosophila genes
# Measured: 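Dual luciferase plate measurements; E2F-specific signal taken as firefly over Renilla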
# Scale: E2F firefly: higher = more E2F reporter activity; Renilla normaliser: higher = more normaliser reporter signal
# Hit rule: 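Called active if the normalised E2F reporter went up by over 50%; the cutoff is arbitrary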
# The deposit covers about 21,000 reagents; this is an unselected part of those that have a named target and a result. In the full data, 18 (0.084%) got an active call. 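Raw counts without plate normalisation, one of two replicates; the ratio scores behind the calls were not deposited.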 The numbers tell different reagents against one gene apart. Names joined by + are all predicted targets of the reagent. Not given: the amount of reagent, the time to read-out.
Target gene,reagent,"E2F firefly, rep 1","Renilla normaliser, rep 1",outcome
CG34323 (GeneID 5740207),1,80302,2886,inactive
robl (GeneID 36963),1,1.45e5,5627,inactive
SP2353 (GeneID 36771),1,1.42e5,4666,inactive
Sema1a (GeneID 34192),1,1.49e5,4961,inactive
Tpc2 (GeneID 37983),1,1.04e5,4144,inactive
CG30323 (GeneID 246539),1,1.59e5,4529,inactive
CG8838 (GeneID 33551),1,90375,3857,inactive
TpnC41C (GeneID 35473),1,1.26e5,5401,inactive
Rab9Db + Rab9D + Rab9Fa + 1 more,1,84497,2406,inactive
Cep135 (GeneID 39647),1,1.29e5,3997,inactive
Cep135 (GeneID 39647),2,70823,3642,inactive
CG8611 (GeneID 32725),1,1.49e5,5926,inactive
Gdap1 (GeneID 38597),1,93101,3840,inactive
CG13614 (GeneID 42911),1,96843,6616,inactive
TwdlK (GeneID 43205),1,78636,6918,inactive
ttm3 (GeneID 35437),1,1.03e5,4305,inactive
CG11249 (GeneID 40409),1,1.33e5,6804,inactive
CG4133 (GeneID 33221),1,1.47e5,5272,inactive
CG15012 (GeneID 38529),1,65815,2944,inactive
CG7878 (GeneID 40959),1,1.52e5,6840,inactive
CG13311 (GeneID 39008),1,89589,3669,inactive
CG1208 (GeneID 40727),1,67657,3041,inactive
CG4198 (GeneID 31445),1,8398,888,inactive
east (GeneID 46006),1,2.20e5,6697,active
CG11200 (GeneID 37301),1,68495,3418,inactive
CaBP1 (GeneID 34976),1,74184,3560,inactive
Pxt (GeneID 42131),1,1.25e5,9387,inactive
CG13838 (GeneID 42719),1,1.20e5,5599,inactive
Sxl + CG14425 (retired record),1,8365,700,inactive
Sxl + CG14425 (retired record),2,1.08e5,5875,inactive
CG8006 (GeneID 38920),1,75090,3602,inactive
Cluap1 (GeneID 33142),1,1.30e5,7197,inactive
Clk (GeneID 38872),1,98107,4492,inactive
RpS12 (GeneID 39480),1,56879,3500,inactive
CG4476 (GeneID 39056),1,82429,3192,inactive
Uba5 (GeneID 32094),1,1.55e5,6896,inactive
Ppn (GeneID 43872),1,1.11e5,5668,inactive
Cht2 (GeneID 38223),1,63496,2971,inactive
CG18139 (retired record) + Hmx,1,94369,4909,inactive
Surf4 (GeneID 41864),1,1.02e5,5050,inactive
Gli (GeneID 34927),1,1.15e5,4284,inactive
CG3708 (GeneID 31039),1,1.38e5,7523,inactive
CG1764 (GeneID 32281),1,8187,724,inactive
Coa7 (GeneID 3355158),1,1.43e5,6324,inactive
CG15036 (GeneID 50396),1,1.21e5,5483,inactive
Hsdl2 (GeneID 43325),1,1621,852,inactive
Pal2 (GeneID 37746),1,1.02e5,4462,inactive
Idh3b (GeneID 42586),1,81168,3237,inactive
fz4 (GeneID 31659),1,1.11e5,5936,inactive
PPP1R15 (GeneID 37820),1,54675,3378,inactive
Indy-2 + CG33934,1,70532,3707,inactive
Indy-2 + CG33934,2,1.42e5,7214,inactive
MED7 (GeneID 41288),1,88659,6658,inactive
Arfip (GeneID 41353),1,74447,3457,inactive
CG31373 (GeneID 318700),1,1.33e5,5989,inactive
CG4301 (GeneID 32610),1,1.59e5,7009,inactive
CG1701 (GeneID 35661),1,1.54e5,5301,inactive
trk (GeneID 34376),1,1.42e5,5217,inactive
elgi (GeneID 39735),1,78304,3687,inactive
CG14443 (GeneID 31595),1,76695,5177,inactive
CG11550 (GeneID 43731),1,1.09e5,5291,inactive
Dpm1 (GeneID 35240),1,95499,4219,inactive
Ncc69 (GeneID 39410),1,72688,3357,inactive
Ncc69 (GeneID 39410),2,87409,3486,inactive
CG10353 (GeneID 32148),1,83148,4138,inactive
DCTN2-p50 (GeneID 44086),1,3207,209,inactive
Alp11 (GeneID 32496),1,1.58e5,6294,inactive
vsg (GeneID 39137),1,1.03e5,5745,inactive
CG17237 (GeneID 33411),1,1.78e5,6207,inactive
mip40 (GeneID 37215),1,67731,3176,inactive
Fuca (GeneID 3772574),1,56282,2946,inactive
Frl (GeneID 39561),1,1.27e5,3008,inactive
Frl (GeneID 39561),2,1.50e5,7772,inactive
Frl (GeneID 39561),3,1.40e5,6516,inactive
Aduk (GeneID 41112),1,1.19e5,5570,inactive
CG13724 (GeneID 39927),1,1.17e5,5802,inactive
CG12637 (GeneID 31996),1,1.10e5,5113,inactive
CG13075 (GeneID 39756),1,1.52e5,7836,inactive
PIG-Q (GeneID 117366),1,92857,2932,inactive
CG15097 (GeneID 37172),1,83362,3817,inactive
side-IV (GeneID 41657),1,1.04e5,5440,inactive
Fer3HCH (GeneID 32260),1,85534,4409,inactive
CG8003 (GeneID 39210),1,78471,3130,inactive
CG12107 (GeneID 35712),1,3433,204,inactive
